The target in this test is Human butyrylcholinesterase (human) (UniProt P06276). The test is described as follows: affinity purification with mass spectrometry.

Amino acid sequences for entries named in this document (tags omitted). Residues count along the entry.
UniProt P06276, residues 29-602: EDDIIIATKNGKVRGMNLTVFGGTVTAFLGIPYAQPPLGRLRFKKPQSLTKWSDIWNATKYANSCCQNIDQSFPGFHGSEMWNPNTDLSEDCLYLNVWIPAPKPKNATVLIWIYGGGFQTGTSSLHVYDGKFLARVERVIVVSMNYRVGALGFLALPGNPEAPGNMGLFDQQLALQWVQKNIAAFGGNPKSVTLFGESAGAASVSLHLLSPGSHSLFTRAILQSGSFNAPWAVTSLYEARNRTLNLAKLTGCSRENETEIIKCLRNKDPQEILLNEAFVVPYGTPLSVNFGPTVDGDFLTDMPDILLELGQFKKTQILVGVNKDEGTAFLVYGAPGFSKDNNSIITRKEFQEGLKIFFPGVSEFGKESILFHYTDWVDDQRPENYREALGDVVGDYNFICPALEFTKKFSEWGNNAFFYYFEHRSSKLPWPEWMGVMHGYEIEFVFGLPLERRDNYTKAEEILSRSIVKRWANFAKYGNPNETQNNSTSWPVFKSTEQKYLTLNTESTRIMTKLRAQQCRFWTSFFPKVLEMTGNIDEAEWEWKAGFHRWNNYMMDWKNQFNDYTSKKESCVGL

No constants are given. Whether binding was seen depends on the method and setting. In cells and extracts the contact can be indirect. Here binding means that the protein was enriched with, or labelled near, the bait; the list need not be complete.

Consider PSPPLPPPPPPPPPPPPPPPPPPPPLP, for which the binding entry is reported as “binds”.

The values are drawn from PMC9838835.
